From PMC8935234
No constants are given. Whether binding was seen depends on the method and setting. Binding seen in cells or lysates may run through a third protein. Some results given as binding are weak or reduced against the parent protein; the word gives no strength.

Amino acid sequences for entries named in this document (tags omitted).
UniProt O95931: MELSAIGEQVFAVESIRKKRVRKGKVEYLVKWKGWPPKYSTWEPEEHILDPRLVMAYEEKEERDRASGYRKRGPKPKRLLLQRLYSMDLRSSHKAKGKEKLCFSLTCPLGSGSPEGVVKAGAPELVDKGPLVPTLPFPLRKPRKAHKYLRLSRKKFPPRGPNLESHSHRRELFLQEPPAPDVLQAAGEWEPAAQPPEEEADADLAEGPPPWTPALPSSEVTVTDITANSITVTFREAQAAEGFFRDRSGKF
UniProt Q9BY78: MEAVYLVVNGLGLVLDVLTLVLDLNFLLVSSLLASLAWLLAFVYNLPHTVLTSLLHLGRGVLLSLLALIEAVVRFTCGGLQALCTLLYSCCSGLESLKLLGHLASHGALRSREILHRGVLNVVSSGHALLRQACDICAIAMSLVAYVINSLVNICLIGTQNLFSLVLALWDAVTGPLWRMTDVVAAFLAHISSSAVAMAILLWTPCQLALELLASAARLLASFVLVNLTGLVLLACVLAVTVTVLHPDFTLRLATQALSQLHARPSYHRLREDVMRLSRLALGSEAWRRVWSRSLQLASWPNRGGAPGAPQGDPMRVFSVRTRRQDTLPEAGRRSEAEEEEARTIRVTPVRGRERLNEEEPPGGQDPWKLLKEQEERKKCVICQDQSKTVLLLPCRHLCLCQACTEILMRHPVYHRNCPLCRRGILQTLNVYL

Experiments:
GST-CBX7 = GST-CBX7 (UniProt O95931); test: pull-down; GST or GST-CBX7 as bait; Flag-RNF26 in 786-O cells detected by western blot; only the target purified
[1] = target: CBX7 (Chromobox protein homolog 7), endogenous in 786-O and A498 cells (human (endogenous in 786-O and A498)) (UniProt O95931); test: co-IP; endogenous proteins; 786-O and A498 RIPA lysates immunoprecipitated with IgG and CBX7 or RNF26 antibodies on protein A+G beads, 4 °C overnight, 6 washes with RIPA buffer; western blot
[2] = target: CBX7 (Chromobox protein homolog 7), exogenously expressed in 293T cells (UniProt O95931); test: co-IP; 293T cells transfected with the indicated plasmids; RIPA lysate immunoprecipitated with IgG and CBX7 or Flag antibodies on protein A+G beads, 4 °C overnight, 6 washes with RIPA buffer; western blot

In the case of “Flag-RNF26 in 786-O cells (from UniProt Q9BY78 1-433)”, the binding (GST-CBX7) is reported as “binds”.
In the case of “RNF26 (ring finger protein 26), endogenous in 786-O and A498 cells (from UniProt Q9BY78 1-433)”, the binding [1] is reported as “binds”.
In the case of “RNF26 (ring finger protein 26), exogenously expressed in 293T cells (from UniProt Q9BY78 1-433)”, the binding [2] is reported as “binds”.
